The list shows only some results of the screen, not a fair sample: it gathers tests that were run many times, whatever their T/C, doses with no T/C, and many T/C values between a quarter and a half above the control. Further doses and runs are listed elsewhere. T/C gives the treated animals as a percentage of the vehicle group. Some entries give survivors of the animals treated and no T/C: the source holds a T/C of zero for them, seemingly a mark for toxic or unscored doses. Some doses without a T/C left all or most animals alive at the check, yet need not have been tolerated: survival well below the control is almost never listed, so the zero probably covers shortened survival too. Counts of survivors are from the toxicity check (mostly the fifth day) where no day follows; animals may have died later. Schedule codes are those of the source, taken here to give the interval after Q, in days (D) or hours (H), and the number of doses after X. Some structures stand for samples that the source files as different forms (salt, stereo form or complex); doses refer to the form tested. Some doses were run more than once; their values stand side by side, smallest first. Where survival is the endpoint, this PubChem deposit counts one and a half times the control or more as active, and values a quarter to a half above the control carry no call in these data; other NCI protocols may use other cut-offs. Some T/C values are followed by the survivors on the day toxicity was checked, most often the fifth; where none is given, no animal had died by that day. Marks such as (2×) say how often a value occurs here.
Test system: P388 leukemia ip, CD2F1 mice, survival T/C
Test: NCI In Vivo Anticancer Drug Screen. Data for tumor model P388 Leukemia (intraperitoneal) in CD2F1 (CDF1) mice
Details: T/C endpoint: median survival time, higher T/C = longer survival
[1] = dose: 20.0 mg/kg/injection, schedule: Q01DX009 (ip), vehicle: water
[2] = dose: 25.0 mg/kg/injection, schedule: Q01DX009 (ip), vehicle: water
[3] = dose: 200.0 mg/kg/injection, schedule: Q01DX009 (ip), vehicle: saline with Tween-80
[4] = dose: 400.0 mg/kg/injection, schedule: Q04DX003 (ip), vehicle: saline with Tween-80

Structure (SMILES): CC[n+]1c(-c2ccccc2)c2cc(N)ccc2c2ccc(N)cc21
- T/C (dose: 0.78 mg/kg/injection, schedule: Q01DX009 (ip), vehicle: saline): 136 % of control
- T/C (dose: 1.25 mg/kg/injection, schedule: Q01DX009 (ip), vehicle: water): 128 % of control
- T/C (dose: 1.56 mg/kg/injection, schedule: Q01DX009 (ip), vehicle: water): 128, 130 [5 of 6 alive], 134, 136, 140 % of control
- T/C (dose: 2.5 mg/kg/injection, schedule: Q01DX009 (ip), vehicle: water): 137, 140, 142, 144, 145, 148, 149, 158 % of control
- T/C (dose: 3.12 mg/kg/injection, schedule: Q01DX005 (ip), vehicle: water): 134 and 142 % of control
- T/C (dose: 3.12 mg/kg/injection, schedule: Q01DX009 (ip), vehicle: water): 139 and 145 % of control
- T/C (dose: 3.13 mg/kg/injection, schedule: Q01DX009 (ip), vehicle: water): 143 and 146 % of control
- T/C (dose: 5.0 mg/kg/injection, schedule: Q01DX009 (ip), vehicle: water): 143, 155, 156, 158 (2×), 169, 175, 179 % of control
- T/C (dose: 6.25 mg/kg/injection, schedule: Q01DX005 (ip), vehicle: water): 135 [5 of 6 alive] and 148 % of control
- T/C (dose: 6.25 mg/kg/injection, schedule: Q01DX009 (ip), vehicle: water): 136, 142, 150, 151, 160 % of control
- T/C (dose: 6.25 mg/kg/injection, schedule: Q04DX003 (ip), vehicle: saline): 137 % of control
- T/C (dose: 6.25 mg/kg/injection, schedule: Q04DX003 (ip), vehicle: water): 132 % of control
- T/C (dose: 8.0 mg/kg/injection, schedule: Q04DX003 (ip), vehicle: saline sonified): 127 % of control
- T/C (dose: 10.0 mg/kg/injection, schedule: Q01DX009 (ip), vehicle: water): 98, 102, 128, 169, 174, 189, 200, 201 % of control
- T/C (dose: 12.0 mg/kg/injection, schedule: Q04DX003 (ip), vehicle: saline sonified): 136 % of control
- T/C (dose: 12.5 mg/kg/injection, schedule: Q01DX005 (ip), vehicle: water): 135 and 144 % of control
- T/C (dose: 12.5 mg/kg/injection, schedule: Q01DX009 (ip), vehicle: water): 127 [5 of 6 alive], 133, 142, 163, 173 % of control
- T/C (dose: 12.5 mg/kg/injection, schedule: Q04DX003 (ip), vehicle: saline): 146 % of control
- T/C (dose: 12.5 mg/kg/injection, schedule: Q04DX003 (ip), vehicle: water): 145 % of control
- T/C [1]: 91 (2×), 99, 180 % of control
- survivor count [1]: 6 of 6
- survivor count (dose: 25.0 mg/kg/injection, schedule: Q01DX005 (ip), vehicle: water): 6 of 6
- T/C [2]: 170 % of control
- survivor count [2]: 4 of 6 and 6 of 6
- T/C (dose: 25.0 mg/kg/injection, schedule: Q04DX003 (ip), vehicle: water): 141 % of control
- survivor count (dose: 40.0 mg/kg/injection, schedule: Q01DX009 (ip), vehicle: water): 3 of 6, 4 of 6, 5 of 6, 6 of 6
- survivor count (dose: 50.0 mg/kg/injection, schedule: Q01DX005 (ip), vehicle: water): 2 of 6 and 4 of 6

Structure (SMILES): Cc1cc(Cl)n2nc(-c3ccc(Cl)cc3)nc2n1
- survivor count (dose: 100.0 mg/kg/injection, schedule: Q01DX009 (ip), vehicle: Klucel (hydroxypropylcellulose) (HPC)): 5 of 6
- survivor count (dose: 200.0 mg/kg/injection, schedule: Q01DX009 (ip), vehicle: Klucel (hydroxypropylcellulose) (HPC)): 3 of 6

Structure (SMILES): Cc1ccc(S(=O)(=O)n2cccn2)cc1
- survivor count (dose: 12.5 mg/kg/injection, schedule: Q01DX009 (ip), vehicle: other): 6 of 6
- survivor count (dose: 50.0 mg/kg/injection, schedule: Q01DX009 (ip), vehicle: other): 6 of 6

Structure (SMILES): N/C(=N\Cl)C(Cl)(Cl)Cl
- T/C (dose: 18.7 mg/kg/injection, schedule: Q01DX009 (ip), vehicle: saline): 130 % of control
- T/C (dose: 37.5 mg/kg/injection, schedule: Q01DX009 (ip), vehicle: saline): 135 % of control
- survivor count (dose: 56.3 mg/kg/injection, schedule: Q01DX009 (ip), vehicle: saline): 3 of 6
- survivor count (dose: 75.0 mg/kg/injection, schedule: Q01DX009 (ip), vehicle: saline): 1 of 6

Structure (SMILES): O=S(/N=C/c1ccccc1)c1ccc(Cl)cc1 (stereo not given)
- survivor count [3]: 6 of 6

Structure (SMILES): COC1C(OC(N)=O)C(O)C(Oc2ccc3c(O)c(NC(=O)c4ccc(O)c(CC=C(C)C)c4)c(=O)oc3c2C)OC1(C)C (stereo not given)
- survivor count (dose: 400.0 mg/kg/injection, schedule: Q01DX009 (ip), vehicle: Klucel (hydroxypropylcellulose) (HPC)): 0 of 6

Structure (SMILES): CC(=O)Nc1ccc(NN=O)cn1
- T/C [2]: 125 % of control
- T/C (dose: 50.0 mg/kg/injection, schedule: Q01DX009 (ip), vehicle: water): 125 and 134 % of control
- T/C (dose: 100.0 mg/kg/injection, schedule: Q01DX009 (ip), vehicle: water): 135 % of control

Structure (SMILES): O=C(NCCCl)Nc1ccn(C(=O)NCCCl)c(=O)n1
- survivor count (dose: 200.0 mg/kg/injection, schedule: Q01DX005 (ip), vehicle: saline with Tween-80): 2 of 6

Structure (SMILES): O=C1C=C2C(=CCOC2O)O1 (stereo not given)
- T/C (dose: 0.5 mg/kg/injection, schedule: Q01DX009 (ip), vehicle: Klucel (hydroxypropylcellulose) (HPC)): 125 and 128 % of control
- T/C (dose: 1.0 mg/kg/injection, schedule: Q01DX009 (ip), vehicle: Klucel (hydroxypropylcellulose) (HPC)): 125 and 128 % of control
- T/C (dose: 1.0 mg/kg/injection, schedule: Q01DX009 (ip), vehicle: saline with Tween-80): 125 % of control
- T/C (dose: 3.0 mg/kg/injection, schedule: Q01DX009 (ip), vehicle: saline with Tween-80): 134 % of control
- T/C (dose: 3.0 mg/kg/injection, schedule: Q04DX003 (ip), vehicle: saline with Tween-80): 125 % of control
- survivor count (dose: 8.0 mg/kg/injection, schedule: Q01DX009 (ip), vehicle: Klucel (hydroxypropylcellulose) (HPC)): 1 of 6
- survivor count (dose: 10.0 mg/kg/injection, schedule: Q01DX009 (ip), vehicle: saline with Tween-80): 2 of 6

Structure (SMILES): CC(=O)Nc1ccc2c(c1)C(N)c1ccccc1-2 (stereo not given)
- survivor count [4]: 4 of 6

Structure (SMILES): Cc1ccc2c(c1)C1(SC(C)C(=O)N1c1ccc(Cl)cc1)C(=O)N2 (stereo not given)
- T/C (dose: 120.0 mg/kg/injection, schedule: Q01DX005 (ip), vehicle: saline with Tween-80): 126 % of control
- T/C (dose: 240.0 mg/kg/injection, schedule: Q01DX005 (ip), vehicle: saline with Tween-80): 133 and 141 % of control

Structure (SMILES): Cc1ccc(-c2cc3cc4c(cc3[nH]2)Sc2ccccc2O4)cc1
- survivor count (dose: 400.0 mg/kg/injection, schedule: Q01DX001 (ip), vehicle: Klucel (hydroxypropylcellulose) (HPC)): 5 of 6

Structure (SMILES): CC(C)(O)/C=C/C(=O)C(C)(O)C1C(O)CC2(C)C3CC=C4C(CC(=O)C(O)C4(C)C)C3(C)C(=O)CC12C (stereo not given)
- T/C (dose: 0.5 mg/kg/injection, schedule: Q01DX009 (ip), vehicle: saline + alcohol): 130 % of control
- T/C (dose: 1.0 mg/kg/injection, schedule: Q01DX009 (ip), vehicle: saline + alcohol): 134 % of control

Structure (SMILES): ClCC1CSC(c2ccc3c(c2)OCO3)O1 (stereo not given)
- T/C [3]: 131 % of control
- T/C (dose: 400.0 mg/kg/injection, schedule: Q01DX009 (ip), vehicle: saline with Tween-80): 137 % of control

Structure (SMILES): CC[N+](C)(C)c1ccc(C(=C2C=CC(=[N+](C)C)C=C2)c2ccc(N(C)C)cc2)cc1
- survivor count (dose: 50.0 mg/kg/injection, schedule: Q01DX005 (ip), vehicle: saline): 0 of 5
- survivor count (dose: 100.0 mg/kg/injection, schedule: Q01DX005 (ip), vehicle: saline): 0 of 5
- survivor count (dose: 200.0 mg/kg/injection, schedule: Q01DX005 (ip), vehicle: saline): 0 of 5

Structure (SMILES): Cc1nc2c([N+](=O)[O-])c(N(C)C)c([N+](=O)[O-])cc2[nH]1
- survivor count (dose: 100.0 mg/kg/injection, schedule: Q04DX003 (ip), vehicle: saline with Tween-80): 0 of 6 and 1 of 6
- survivor count (dose: 200.0 mg/kg/injection, schedule: Q04DX003 (ip), vehicle: saline with Tween-80): 0 of 6
- survivor count [4]: 0 of 6

Structure (SMILES): C[N+]1(C)CCC(Cl)CC1
- survivor count (dose: 60.0 mg/kg/injection, schedule: Q01DX005 (ip), vehicle: saline): 2 of 6
- survivor count (dose: 120.0 mg/kg/injection, schedule: Q01DX005 (ip), vehicle: saline): 0 of 6
- survivor count (dose: 240.0 mg/kg/injection, schedule: Q01DX005 (ip), vehicle: saline): 0 of 6

From PubChem BioAssay AID330 (DTP/NCI, 2004)
